Source: patent US20190225669A1
No constants are given. Whether binding was seen depends on the method and setting. Some results given as binding are weak or reduced against the parent protein; the word gives no strength.

Chains of the proteins cited; added tags and fusions are not shown. Lines headed by an entry give the natural chain unless they say otherwise; changes in a name come on top. Residues count along the entry.
UniProt Q9UK05, residues 320-429: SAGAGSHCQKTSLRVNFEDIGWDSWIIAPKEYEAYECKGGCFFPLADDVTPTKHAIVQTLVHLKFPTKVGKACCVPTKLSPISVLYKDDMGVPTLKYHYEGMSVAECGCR
UniProt P27037: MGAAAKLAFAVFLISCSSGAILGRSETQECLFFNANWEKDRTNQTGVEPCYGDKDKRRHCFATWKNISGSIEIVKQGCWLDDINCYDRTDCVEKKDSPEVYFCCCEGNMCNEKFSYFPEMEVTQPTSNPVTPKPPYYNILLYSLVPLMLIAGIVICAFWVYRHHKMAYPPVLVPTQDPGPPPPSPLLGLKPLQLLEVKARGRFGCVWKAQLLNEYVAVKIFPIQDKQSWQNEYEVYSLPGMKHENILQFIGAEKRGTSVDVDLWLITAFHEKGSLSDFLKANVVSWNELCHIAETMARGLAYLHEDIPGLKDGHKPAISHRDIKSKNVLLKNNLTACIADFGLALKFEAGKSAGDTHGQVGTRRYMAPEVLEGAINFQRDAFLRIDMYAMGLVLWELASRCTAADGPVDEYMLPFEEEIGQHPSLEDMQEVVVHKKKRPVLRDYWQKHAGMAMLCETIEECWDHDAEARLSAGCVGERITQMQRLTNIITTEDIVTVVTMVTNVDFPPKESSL

Tests used:
BMP9 = BMP9 (UniProt Q9UK05); test: Biacore SPR; kinetics indeterminate (transient)
activin B = target: T1, activin B (UniProt P09529); test: Biacore SPR
T1 sequence (looked up): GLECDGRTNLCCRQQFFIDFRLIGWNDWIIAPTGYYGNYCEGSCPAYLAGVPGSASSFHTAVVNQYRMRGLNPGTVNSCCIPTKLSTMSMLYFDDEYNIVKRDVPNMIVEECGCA

binding (BMP9): binds | binding (activin B): binds
Substance: ActRIIA-Fc homodimer (from UniProt P27037 20-135) (Fc fusion)
